## Primary screen of a compound library

Chains of the proteins cited; added tags and fusions are not shown.
UniProt P9WFT3, whole entry: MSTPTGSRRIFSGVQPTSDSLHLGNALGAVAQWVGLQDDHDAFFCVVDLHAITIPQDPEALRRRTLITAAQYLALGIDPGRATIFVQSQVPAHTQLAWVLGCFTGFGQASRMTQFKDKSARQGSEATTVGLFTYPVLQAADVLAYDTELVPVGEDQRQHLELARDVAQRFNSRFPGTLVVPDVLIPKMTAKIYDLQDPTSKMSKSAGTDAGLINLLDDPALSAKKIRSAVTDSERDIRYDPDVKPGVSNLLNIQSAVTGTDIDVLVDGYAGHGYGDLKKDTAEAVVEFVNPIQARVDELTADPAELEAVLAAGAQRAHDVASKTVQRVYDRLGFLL
UniProt P9WPC5, whole entry: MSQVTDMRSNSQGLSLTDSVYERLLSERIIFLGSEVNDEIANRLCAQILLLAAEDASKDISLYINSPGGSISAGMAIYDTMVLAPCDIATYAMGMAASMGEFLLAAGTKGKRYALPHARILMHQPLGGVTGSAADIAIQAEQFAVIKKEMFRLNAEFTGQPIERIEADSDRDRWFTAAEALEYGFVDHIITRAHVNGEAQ
UniProt P9WPC3, whole entry partner: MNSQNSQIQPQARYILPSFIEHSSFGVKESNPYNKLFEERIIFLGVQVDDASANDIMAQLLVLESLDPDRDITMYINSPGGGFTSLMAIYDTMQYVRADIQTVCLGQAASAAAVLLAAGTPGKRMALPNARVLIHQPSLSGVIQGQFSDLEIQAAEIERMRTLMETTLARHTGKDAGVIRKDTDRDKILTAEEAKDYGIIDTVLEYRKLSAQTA
UniProt P9WNZ1, whole entry: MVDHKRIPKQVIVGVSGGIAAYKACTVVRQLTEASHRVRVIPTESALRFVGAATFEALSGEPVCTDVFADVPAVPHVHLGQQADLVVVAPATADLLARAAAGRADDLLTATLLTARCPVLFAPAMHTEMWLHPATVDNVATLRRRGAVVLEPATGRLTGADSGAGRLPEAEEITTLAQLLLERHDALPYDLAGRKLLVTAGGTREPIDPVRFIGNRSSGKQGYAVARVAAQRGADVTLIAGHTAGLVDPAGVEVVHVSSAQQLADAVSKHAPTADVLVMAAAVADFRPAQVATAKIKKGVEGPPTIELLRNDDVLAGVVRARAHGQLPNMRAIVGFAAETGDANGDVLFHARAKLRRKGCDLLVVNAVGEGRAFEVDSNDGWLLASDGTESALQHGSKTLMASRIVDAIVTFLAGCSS
UniProt I6X8D2, whole entry: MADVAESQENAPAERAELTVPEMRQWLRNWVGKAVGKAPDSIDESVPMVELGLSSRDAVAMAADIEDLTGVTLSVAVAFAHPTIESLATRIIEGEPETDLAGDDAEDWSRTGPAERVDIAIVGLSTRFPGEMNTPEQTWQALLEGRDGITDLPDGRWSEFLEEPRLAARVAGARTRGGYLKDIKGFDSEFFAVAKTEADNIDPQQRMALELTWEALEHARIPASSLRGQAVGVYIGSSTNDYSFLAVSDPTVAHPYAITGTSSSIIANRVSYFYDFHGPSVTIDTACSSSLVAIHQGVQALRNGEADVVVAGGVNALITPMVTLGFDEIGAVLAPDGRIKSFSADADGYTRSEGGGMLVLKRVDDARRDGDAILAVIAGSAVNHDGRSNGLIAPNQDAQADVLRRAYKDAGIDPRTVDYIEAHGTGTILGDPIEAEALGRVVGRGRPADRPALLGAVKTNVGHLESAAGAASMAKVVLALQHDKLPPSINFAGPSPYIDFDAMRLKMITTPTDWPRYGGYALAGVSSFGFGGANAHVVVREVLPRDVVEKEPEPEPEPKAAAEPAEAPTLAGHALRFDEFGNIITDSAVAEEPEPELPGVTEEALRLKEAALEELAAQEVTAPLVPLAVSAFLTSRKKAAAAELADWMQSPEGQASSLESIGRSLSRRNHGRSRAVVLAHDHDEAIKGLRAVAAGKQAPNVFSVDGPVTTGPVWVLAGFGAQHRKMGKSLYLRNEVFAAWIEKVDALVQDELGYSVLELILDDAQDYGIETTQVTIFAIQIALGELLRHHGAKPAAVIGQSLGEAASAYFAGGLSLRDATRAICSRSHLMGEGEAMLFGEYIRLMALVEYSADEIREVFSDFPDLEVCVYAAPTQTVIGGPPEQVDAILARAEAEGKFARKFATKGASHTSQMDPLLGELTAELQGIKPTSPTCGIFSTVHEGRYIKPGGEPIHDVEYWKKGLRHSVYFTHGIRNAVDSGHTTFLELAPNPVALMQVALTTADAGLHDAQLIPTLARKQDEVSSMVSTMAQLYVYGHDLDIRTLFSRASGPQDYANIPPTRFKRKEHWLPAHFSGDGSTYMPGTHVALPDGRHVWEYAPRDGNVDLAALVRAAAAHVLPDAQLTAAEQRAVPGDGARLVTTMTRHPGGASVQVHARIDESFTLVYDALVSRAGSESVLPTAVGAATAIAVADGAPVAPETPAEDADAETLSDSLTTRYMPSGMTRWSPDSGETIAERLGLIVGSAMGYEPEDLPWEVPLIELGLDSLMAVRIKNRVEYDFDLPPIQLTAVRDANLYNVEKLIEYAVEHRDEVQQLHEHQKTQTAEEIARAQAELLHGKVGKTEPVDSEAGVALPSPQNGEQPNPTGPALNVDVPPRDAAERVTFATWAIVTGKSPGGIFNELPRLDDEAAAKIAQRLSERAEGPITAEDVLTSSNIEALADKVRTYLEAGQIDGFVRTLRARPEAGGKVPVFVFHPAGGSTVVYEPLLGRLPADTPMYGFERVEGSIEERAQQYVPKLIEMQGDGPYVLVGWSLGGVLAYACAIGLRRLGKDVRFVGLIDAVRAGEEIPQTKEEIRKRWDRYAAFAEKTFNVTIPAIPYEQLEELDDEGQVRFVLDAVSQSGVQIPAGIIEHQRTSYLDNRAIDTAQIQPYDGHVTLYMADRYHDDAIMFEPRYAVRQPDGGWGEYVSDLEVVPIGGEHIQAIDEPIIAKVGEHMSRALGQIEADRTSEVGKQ

The values are deposited in ChEMBL (CHEMBL3988442, “University of Dundee, Small-Polar-MMV Screening Library” (2021)).

MtTrpRS: 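Tryptophan-tRNA ligase, Mycobacterium tuberculosis (UniProt P9WFT3). Enzyme assay of tryptophanyl-tRNA synthetase; the read-out is not stated. Tested at 10 µM. Direction is not recorded; retested compounds ran higher, which suggests that high means inhibition. Of about 65,000 compounds tested this way, about 64 (0.098%) reached 50% or more in at least one test.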
Toxoplasma: 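Assay of Toxoplasma gondii numbers, read through their beta-galactosidase reporter with a colour substrate. Compounds at 10 µM. Higher reads as fewer parasites (inferred from which compounds were picked for retests). Size under these conditions: about 67,000 compounds, about 260 of them at 50% or above in at least one test.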
ClpP1P2: 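Protease assay of ClpP1P2, read by the AMC dye that it sets free. Target: ClpP1P2, Mycobacterium tuberculosis (UniProt P9WPC5 and UniProt P9WPC3). Tested at 50 µM. Higher reads as stronger inhibition, judged from the few compounds that gave an IC50. Most other retested compounds had strongly negative values. Size under these conditions: about 69,000 compounds, about 10 of them at 50% or above in at least one test.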
CoaBC: 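Enzyme assay of CoaBC with a phosphate dye (Biomol Green) read at 650 nm. Target: Coenzyme A biosynthesis protein CoaBC, Mycobacterium tuberculosis (UniProt P9WNZ1). Concentration: 30 µM. Direction is inferred from only a few compounds that gave an IC50; most scored high, so higher reads as stronger inhibition. Most strong results did not repeat in a second test. Of about 67,000 compounds tested this way, about 40 (0.06%) reached 50% or more in at least one test.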
Pks13 thioesterase: 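Enzyme assay of the thioesterase domain of polyketide synthase 13; the read-out is not stated. Target: Polyketide synthase Pks13, Mycobacterium tuberculosis (UniProt I6X8D2). Concentration: 30 µM. Higher reads as stronger inhibition (inferred from which compounds were picked for retests). Of about 67,000 compounds tested this way, about 300 (0.46%) reached 50% or more in at least one test.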

The filed quantity is “Percent Effect” (%).
The controls that fix the scale are not given in the record; negative values are as filed.
Compounds were drawn at random from those tested, without regard to their results.

{"structure": "CCOc1ncccc1C(=O)Nc1c(C)cnn1CC1CC1", "MtTrpRS": -2.897, "Toxoplasma": 4.549, "ClpP1P2": -7.061, "CoaBC": -3.423, "Pks13 thioesterase": -22.98}
{"structure": "CCCn1c(C)c(CC(=O)N[C@H](C)C(=O)OC)c2c1CC(C)(C)CC2=O", "MtTrpRS": -0.3228, "Toxoplasma": -12.17, "ClpP1P2": -22.64, "CoaBC": 1.015, "Pks13 thioesterase": -32.94}
{"structure": "[H][C@]12CNC[C@@]1(C(=O)NCCS(=O)(=O)CC)CN(C1CCCC1)C2", "Toxoplasma": 8.45}
{"structure": "Cn1ncc2c(NCC3CCCN3c3cccnn3)ncnc21", "stereo": "stereo not drawn", "MtTrpRS": -7.029, "Toxoplasma": -13.18, "ClpP1P2": -14.27, "CoaBC": -2.417, "Pks13 thioesterase": -11.35}
{"structure": "Cc1cc(C(=O)NCc2cccnc2OC(C)C)no1", "MtTrpRS": -2.582, "Toxoplasma": 3.504, "ClpP1P2": 5.973, "CoaBC": 3.203, "Pks13 thioesterase": -6.037}
{"structure": "Cc1noc(C(C)N2CCN(c3ncnc4ccccc34)CC2)n1", "stereo": "stereo not drawn", "MtTrpRS": 4.535, "Toxoplasma": 8.009, "ClpP1P2": -0.6896, "CoaBC": 1.373, "Pks13 thioesterase": -14.33}
{"structure": "CCN(C(=O)Cc1ccc(NCc2nccn2C)cc1)c1ccccc1", "MtTrpRS": 3.532, "Toxoplasma": 2.05, "ClpP1P2": 5.339, "Pks13 thioesterase": -39.34}
{"structure": "CCN1C(=O)C(C)(C)c2cc(NC(=O)c3ccn(CC)n3)ccc21", "MtTrpRS": -2.441, "Toxoplasma": -16.49, "ClpP1P2": -17.32, "CoaBC": 2.911, "Pks13 thioesterase": 2.047}
{"structure": "Cc1nncn1CCN1C(=O)CC2(CCCC2)CC1=O", "MtTrpRS": 2.78, "Toxoplasma": 15.35, "ClpP1P2": -9.817, "CoaBC": -27.42}
{"structure": "Cc1ccccc1C(=O)NCCC(=O)NS(=O)(=O)c1cccnc1", "MtTrpRS": -3.936, "Toxoplasma": 5.133, "ClpP1P2": 5.354, "CoaBC": -1.945, "Pks13 thioesterase": -10.92}
{"structure": "Cn1ccnc1CN1CCN(Cc2noc(-c3ccccc3)n2)CC1", "MtTrpRS": 1.267, "Toxoplasma": 0.7703, "ClpP1P2": 0.849, "CoaBC": 8.735, "Pks13 thioesterase": -9.216}
{"structure": "COc1cc(NC(=O)N(C)CC2CC2)ncn1", "MtTrpRS": -5.728, "Toxoplasma": 3.386, "ClpP1P2": 6.169, "CoaBC": 3.828, "Pks13 thioesterase": -31.57}
{"structure": "O=C(CCc1ccccn1)NC1CCN(c2cccc(Cl)c2)C1", "stereo": "stereo not drawn", "MtTrpRS": 1.37, "Toxoplasma": -4.204, "ClpP1P2": -10.42, "CoaBC": -0.4808, "Pks13 thioesterase": -22.83}
{"structure": "CC(=O)N1CCCN(C(=O)c2oc(Br)cc2C)CC1", "MtTrpRS": 2.09, "Toxoplasma": -5.193, "ClpP1P2": -3.697, "CoaBC": 10.87, "Pks13 thioesterase": -10.35}
{"structure": "Cc1csc2c(=O)n(CCSc3cnn[nH]3)cnc12", "MtTrpRS": -5.012, "Toxoplasma": -9.037, "ClpP1P2": -12.45, "CoaBC": 0.2469, "Pks13 thioesterase": -89.36}